Results taken from PubChem BioAssay AID2685 (National Center for Advancing Translational Sciences (NCATS), 2010).
The list shows a part of the results. Further columns of the screen follow, without active or inactive calls. Most of these compounds were active or inconclusive in the main read-out, so they are no random draw. Potencies come from curve fits of mixed quality, noted in brackets.

Test: qHTS Assay for Lipid Storage Modulators in Drosophila S3 Cells;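 on cell number change: cells counted by Cell Tracker Red CMTPX staining in the red channel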
Settings: BODIPY lipid droplet fluorescence, 18-24 h; for cell number change: measured here: cell count max response, cells fed with added oleic acid
Summary of the method: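 Drosophila S3 cells got compounds at several concentrations plus oleic acid (400 uM solution). Laser-scanning cytometry with 488 nm excitation read lipid droplets at 500-530 nm and cells at 575-640 nm. Percent activity was relative to 20 uM Triacsin C.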

[1] = measured here: lipid fluorescence (Fed channel) AC50, cells fed with added oleic acid
[2] = measured here: cell number channel AC50, cells fed with added oleic acid

| SMILES | cell number change [%] | AC50 [1] | AC50 [2] |
| --- | --- | --- | --- |
| CN1C(=O)CS/C1=N\NC(=O)COc1cccc2cccnc12 | -25.8 | 16.4 µM [falling, single point] |  |
| Cc1ncc(C[n+]2csc(CCOC(=O)CC34CC5CC(CC(C5)C3)C4)c2C)c(N)n1 | -57.2 | 25.9 µM [falling, single point] | 4.61 µM [falling, full curve] |
| O=C(/C=C/c1ccc(S(=O)(=O)N2CCOCC2)cc1)NC(=S)NCCCn1ccnc1 |  |  | 0.651 µM [rising, full curve, poor fit] |
| Cc1ccc(NC(=O)COC(=O)/C=C/c2c(C)nn(-c3ccc(F)cc3)c2Cl)cc1F | 6.23 |  |  |
| CCn1c(=O)cc(OCC(=O)NCCCN2CCC(C)CC2)c2ccccc21 |  |  | 3.66 µM [rising, partial curve, poor fit] |
| CCOc1ccccc1NC(=O)C(NCCN(C)C)c1ccccc1 (stereo not given) | -20.3 | 8.2 µM [falling, partial curve, poor fit] |  |
| COC(=O)COc1ccc(S(=O)(=O)Nc2ccc(NC(C)=O)cc2)cc1 |  | 4.11 µM [falling, partial curve] |  |
| Cc1cccc(N2C(=O)N3[C@@H]4c5ccccc5OC[C@@H]4[C@@H](c4ccccc4)[C@@]3(C)C2=O)c1 | 31.4 |  | 29.1 µM [rising, partial curve, poor fit] |
| CNc1ncc(C(=O)C(C)(C)C)s1 | 11.9 | 0.13 µM [falling, full curve, poor fit] |  |
| COc1ccc(-c2oc3ccccc3c2C(=O)Oc2ccccc2)cc1 | 24.3 | 29.1 µM [rising, single point] |  |
| CNc1c([N+](=O)[O-])cnn1-c1cccc(Cl)n1 | 4.41 | 0.82 µM [falling, single point] |  |
| O=C(Cn1ncc(Cl)c(Cl)c1=O)N1CCN(S(=O)(=O)c2ccc3ccccc3c2)CC1 | -28.3 | 13 µM [falling, partial curve] |  |
| Cc1ccc(CCN2C(Nc3ccccc3)=NC[C@@H]2C)cc1 |  | 2.59 µM [falling, partial curve, poor fit] |  |
| COc1cccc(C(=O)OCCN2CCOCC2)c1 | 18.4 |  |  |
| CN=C1S/C(=C\c2ccc(N3CCOCC3)cc2C)C(=O)N1C | 6.33 | 0.58 µM [rising, partial curve, poor fit] |  |
| COc1cccc(-c2nnc(SC(C(=O)c3c[nH]c4ccccc34)c3ccccc3)n2C)c1 (stereo not given) | -7.52 | 1.3 µM [rising, partial curve] |  |
| COc1ccc(OC)c(C(C)NC(=O)C(C)Cc2ccccc2)c1 (stereo not given) | 0.088 | 32.6 µM [falling, single point] |  |
| CCN(CC)CCCNc1ccc(-c2nnc(-c3ccc(OCC(C)C)cc3)o2)cn1 | -6.41 |  |  |
| O=C1C=C(Nc2cccc(Cl)c2)CC(c2ccco2)C1 (stereo not given) | -3.06 | 5.8 µM [rising, single point] | 2.06 µM [rising, partial curve] |
| C/C(=N\NC1=NCCN1)c1ccc(Cl)cc1 | -14.1 | 1.3 µM [falling, full curve, poor fit] |  |

In the list so far, these have a furan ring, fused or not.

| SMILES | cell number change [%] | AC50 [1] | AC50 [2] |
| --- | --- | --- | --- |
| COc1ccc(-c2oc3ccccc3c2C(=O)Oc2ccccc2)cc1 | 24.3 | 29.1 µM [rising, single point] |  |
| O=C1C=C(Nc2cccc(Cl)c2)CC(c2ccco2)C1 (stereo not given) | -3.06 | 5.8 µM [rising, single point] | 2.06 µM [rising, partial curve] |

Following part:

| SMILES | cell number change [%] | AC50 [1] | AC50 [2] |
| --- | --- | --- | --- |
| c1ccc2c(-c3nnc4n3CCCCC4)c[nH]c2c1 | 1.76 | 20.6 µM [falling, single point] |  |
| CCCn1cc(C(CC(=O)O)C(=O)O)c2ccccc21 (stereo not given) | 1.17 | 6.51 µM [falling, single point] |  |
| Cc1ccccc1OCC(=O)NCCN1CCCC1 | 1.35 |  |  |
| CCN(CC)S(=O)(=O)c1cc(OC)c(Cl)cc1Cl | 6.03 | 29.1 µM [rising, partial curve] |  |
| O=C(c1cccc([N+](=O)[O-])c1)N1CCN(C(=O)c2ccco2)CC1 | -46.9 |  |  |
| Nc1c(C(=O)NCc2cccs2)nnn1CC(=O)Nc1cccc(Cl)c1 | -21.3 | 2.06 µM [falling, full curve] |  |
| Cc1cc2ccccc2c(=O)n1CC(=O)NCC(=O)N1CCN(c2cccc(Cl)c2)CC1 | -15.8 |  |  |
| CC(C)(C)c1ccc(OCC(=O)NNC(=S)NC(=O)c2ccccc2[N+](=O)[O-])c(Br)c1 | -22.1 |  |  |
| CC(=O)Nc1ccc(S(=O)(=O)NC2(C(F)(F)F)NC(=O)N(C3CCCCC3)C2=O)cc1 (stereo not given) | -39.9 | 0.00651 µM [falling, full curve, poor fit] | 0.0231 µM [falling, full curve, poor fit] |
| O=C(c1ccc(OCC2CCCO2)cc1)N1CCc2ccccc2C1 (stereo not given) | -5.55 |  | 3.66 µM [falling, single point] |
| Cn1c(CC(=O)Nc2ccccc2F)nnc1SCC(=O)Nc1ccccc1Br | -6.58 |  |  |
| COC(=O)c1sc(=S)n(-c2ccccc2)c1N |  | 0.146 µM [falling, full curve] |  |
| Cc1nn(-c2ccccc2)c2nc(-c3ccncc3)cc(C(=O)NCc3ccco3)c12 | 57.6 | 16.4 µM [rising, partial curve] | 7.31 µM [rising, partial curve] |
| CC(=O)c1ccc(N2CC(C)(C)C2=O)cc1 | -36.8 | 8.2 µM [falling, single point] | 0.116 µM [falling, full curve] |
| Cc1sc(NC(=O)c2ccco2)nc1-c1ccc2c(c1)CC(C)N2C(=O)C1CC1 (stereo not given) | -17 |  |  |
| COc1ccccc1C(=O)Nc1ccc2c(c1)n(C)c(=O)n2C | -30.7 | 2.59 µM [rising, partial curve] | 29.1 µM [falling, single point] |
| C=CCNC(=S)N(Cc1ccccc1)Cc1ccccc1 | 16.4 | 14.6 µM [rising, partial curve] |  |
| Cc1cccc(NC(=O)c2cccc3c2C(=O)c2ccccc2-3)c1 | -16.4 | 18.4 µM [falling, partial curve] |  |
| Cc1oc2ccc(O)c(CN3CCOCC3)c2c1C(=O)c1ccc(Cl)cc1 | -34.4 |  | 5.17 µM [falling, full curve] |
| COc1ccc(C(=O)Nc2cccc(C(=O)NCc3ccccc3)c2)cc1 |  | 29.1 µM [falling, partial curve, poor fit] | 0.0291 µM [falling, full curve, poor fit] |

Quoted from the listing.
`Cc1ccccc1OCC(=O)NCCN1CCCC1` | cell number change [%]: 1.35
`Cc1cccc(NC(=O)c2cccc3c2C(=O)c2ccccc2-3)c1` | AC50 [1]: 18.4 µM [falling, partial curve]

(more compounds)

| SMILES | cell number change [%] | AC50 [1] | AC50 [2] |
| --- | --- | --- | --- |
| O=C(c1cccc(S(=O)(=O)N2CCOCC2)c1)N(Cc1ccc(F)cc1)Cc1ccco1 | -4 | 0.651 µM [falling, partial curve, poor fit] | 0.00517 µM [falling, full curve, poor fit] |
| C[C@@H](NC(=O)OC(C)(C)C)c1nnc(S(=O)(=O)Cc2ccccc2)o1 | -58.4 | 7.31 µM [falling, partial curve] | 8.2 µM [falling, partial curve] |
| O=C(CCc1ccccc1)Nc1c(F)c(F)c(F)c(F)c1F | 2.51 | 29.1 µM [falling, single point] | 4.11 µM [falling, single point] |
| O=C(CSc1nc2ccccc2o1)NCc1n[nH]c(=O)c2ccccc12 | -7.87 | 0.00651 µM [falling, full curve, poor fit] |  |
| COc1ccccc1CNC(=O)c1ccc(-c2ccccc2Cl)o1 | -2.34 | 7.31 µM [rising, partial curve, poor fit] |  |
| O=C(Nc1ccc(Cl)cc1)N1CCCN(c2ccc(C(F)(F)F)cc2[N+](=O)[O-])CC1 | -15.5 |  |  |
| CNC(=O)c1cc2c(ccc3ccccc32)oc1=N | -37.5 | 29.1 µM [falling, single point] | 23.1 µM [falling, single point] |
| CC(NC(=O)CSc1cccc(C(F)(F)F)c1)c1ccccc1 (stereo not given) | 25.4 | 29.1 µM [rising, single point] |  |
| O=C(c1ccc(Br)cc1)C(CN1CCOCC1)c1ccccc1 (stereo not given) | -66.3 | 20.6 µM [falling, single point] | 18.4 µM [falling, partial curve] |
| Cc1ccc(S(=O)(=O)Oc2ccccc2/C=N/NC(N)=S)cc1 | 36.3 | 0.366 µM [rising, full curve] | 0.092 µM [rising, full curve, poor fit] |
| CCOc1ccccc1NC(=O)/C=C/C(N)=O | -83.4 | 0.146 µM [falling, full curve] | 7.31 µM [falling, partial curve, poor fit] |
| CC(=O)C1=C(C)OC(N)=C(C#N)C1c1ccncc1 (stereo not given) | 95.9 |  | 16.4 µM [rising, partial curve] |
| CCOc1ccc(N(C)S(=O)(=O)c2cc(-c3cc(C)no3)ccc2C(C)C)cc1 | 27.2 | 2.06 µM [rising, partial curve] |  |
| COc1ccc(N2CC(C(=O)Nc3ccc(S(=O)(=O)Nc4nccs4)cc3)CC2=O)c(OC)c1 (stereo not given) | -26.9 |  |  |
| CCN(C(=O)COC(=O)Cc1coc2cc(C)ccc12)c1c(N)n(Cc2ccccc2)c(=O)[nH]c1=O | -8.46 | 0.82 µM [falling, single point] | 0.731 µM [falling, single point] |
| CC(C)(C)NC(=O)CSc1ccc(S(=O)(=O)N2CCOCC2)cn1 | -1.93 | 29.1 µM [rising, single point] |  |
| CCOC(=O)CNC(=S)N(Cc1ccco1)Cc1ccccc1Cl | 19 |  |  |
| O=C(COc1ccc(Cl)cc1Cl)OCn1nnc2ccccc2c1=O | -11.9 | 7.31 µM [falling, single point] |  |
| Cc1nn(C)cc1CNC(=O)c1ccc(F)cc1 | 6.23 | 0.184 µM [falling, full curve, poor fit] |  |
